According to the supplement of paper PMC4604168 (melanoma cell lines):
This is one part of the list. Repeats are few or missing, and single values can be far off.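 The apoptosis fraction was the count of cleaved-PARP antibody-stained nuclei relative to all DNA-stained nuclei, imaged in 1,536-well plates. Screening doses were set so most cells survived, and baseline and induced cleaved-PARP levels vary greatly across cell lines.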

Legend:
Assay in all cases: cleaved PARP positive nuclei fraction relative to DMSO control; melanoma cells; higher = more apoptosis
Details in all cases: library dose: low library concentration; 72 h
[1] = test system: 501Mel
[2] = test system: A101D
[3] = test system: A2058
[4] = test system: A375
[5] = test system: C32
[6] = test system: CBRC008 (line from a melanoma biopsy)
[7] = test system: CBRC014 (line from a melanoma biopsy)
[8] = test system: CBRC016 (line from a melanoma biopsy)
[9] = test system: CBRC017 (line from a melanoma biopsy)
[10] = test system: CBRC034 (line from a melanoma biopsy)
[11] = test system: COLO792
[12] = test system: COLO800
[13] = test system: COLO829
[14] = test system: G361
[15] = test system: IPC-298
[16] = test system: IST-MEL1
[17] = test system: LB2518-MEL
[18] = test system: LOXIMVI
[19] = test system: MEL-HO
[20] = test system: CBRC013 (line from a melanoma biopsy)

| SMILES | cleaved PARP positive nuclei fraction [1] [%] | cleaved PARP positive nuclei fraction [2] [%] | cleaved PARP positive nuclei fraction [3] [%] | cleaved PARP positive nuclei fraction [4] [%] | cleaved PARP positive nuclei fraction [5] [%] | cleaved PARP positive nuclei fraction [6] [%] | cleaved PARP positive nuclei fraction [7] [%] | cleaved PARP positive nuclei fraction [8] [%] | cleaved PARP positive nuclei fraction [9] [%] | cleaved PARP positive nuclei fraction [10] [%] | cleaved PARP positive nuclei fraction [11] [%] | cleaved PARP positive nuclei fraction [12] [%] | cleaved PARP positive nuclei fraction [13] [%] | cleaved PARP positive nuclei fraction [14] [%] | cleaved PARP positive nuclei fraction [15] [%] | cleaved PARP positive nuclei fraction [16] [%] | cleaved PARP positive nuclei fraction [17] [%] | cleaved PARP positive nuclei fraction [18] [%] | cleaved PARP positive nuclei fraction [19] [%] | cleaved PARP positive nuclei fraction [20] [%] |
| --- | --- | --- | --- | --- | --- | --- | --- | --- | --- | --- | --- | --- | --- | --- | --- | --- | --- | --- | --- | --- |
| O=C(Nc1cc(C(F)(F)F)cc(C(F)(F)F)c1)c1cc(Cl)ccc1O + CCCCCCCCCCCCCCCCCCOP(=O)([O-])OC1CC[N+](C)(C)CC1 [Perifosine] (first compound 0.016 µM, partner dose 0.4 µM) | 72.2 | 88.7 | 94.6 | 114 | 155 | 117 | 186 | 91.3 | 106 | 74.7 | 68.7 | 69.7 | 139 | 79.1 | 29.1 | 133 | 34.4 | 104 | 327 | – |
| O=c1[nH]nc(Sc2ncc([N+](=O)[O-])s2)n1-c1ccc2c(c1)OCCO2 + C=C(c1ccc(C(=O)O)cc1)c1cc2c(cc1C)C(C)(C)CCC2(C)C [Bexarotene] (first compound 0.2 µM, partner dose 2 µM) | 48.3 | 118 | 140 | 45.6 | 77.6 | 87.8 | 126 | 109 | 237 | 49.2 | 63.5 | 137 | 116 | 90.9 | 166 | 123 | 110 | 83 | 147 | – |
| Cc1ccc(Nc2nccc(N(C)c3ccc4c(C)n(C)nc4c3)n2)cc1S(N)(=O)=O [Pazopanib] + Clc1ccc(Nc2nnc(Cc3ccncc3)c3ccccc23)cc1 [vatalanib] (first compound 0.4 µM, partner dose 2 µM) | 76.4 | 105 | 151 | 290 | 90 | 108 | 123 | 155 | 107 | 66.9 | 107 | 79.4 | 68.1 | 125 | 117 | 31.9 | 101 | 33.3 | 133 | – |
| Cc1cc(Nc2cc(N3CCN(C)CC3)nc(Sc3ccc(NC(=O)C4CC4)cc3)n2)n[nH]1 [Tozasertib] + Cn1sc(=O)n(Cc2ccccc2)c1=O [TDZD-8] (first compound 0.006 µM, partner dose 0.4 µM) | 55.8 | 91.5 | 113 | 69.8 | 202 | 70.1 | 682 | 89.5 | 100 | 274 | 121 | 32.3 | 193 | 80 | 130 | 64 | 109 | 256 | 162 | – |
| O=c1[nH]nc(Sc2ncc([N+](=O)[O-])s2)n1-c1ccc2c(c1)OCCO2 + COc1cc(Nc2ncc(F)c(Nc3ccc4c(n3)NC(=O)C(C)(C)O4)n2)cc(OC)c1OC [Tamatinib] (first compound 0.2 µM, partner dose 0.4 µM) | 61.2 | 91.4 | 238 | 103 | 42.8 | 231 | 102 | 71.7 | 100 | – | 147 | 122 | 160 | 130 | 114 | 21.8 | 49.7 | 89.8 | 70.8 | 89.7 |
| O=C(Nc1cc(C(F)(F)F)cc(C(F)(F)F)c1)c1cc(Cl)ccc1O + CN(C)S(=O)(=O)c1ccc2c(c1)/C(=C/c1cc3c([nH]1)CCCC3)C(=O)N2 [SU6656] (first compound 0.016 µM, partner dose 0.4 µM) | 194 | 97.6 | 176 | 96.4 | 66.4 | 58.7 | 783 | 239 | 106 | – | 324 | 100 | 106 | 104 | 367 | 638 | 54.4 | 1310 | 504 | 165 |
| O=C(Nc1cc(C(F)(F)F)cc(C(F)(F)F)c1)c1cc(Cl)ccc1O + Cn1c(=O)n(-c2ccc(C(C)(C)C#N)cc2)c2c3cc(-c4cnc5ccccc5c4)ccc3ncc21 [NVP-BEZ235] (first compound 0.016 µM, partner dose 0.004 µM) | 62.2 | 248 | 95.4 | 119 | 75 | 119 | 98.4 | 96.9 | 133 | 72.1 | 149 | 144 | 122 | 89.6 | 169 | 31.1 | 98.1 | 152 | 57.6 | – |
| CCCCCCCCCCCCCCCCCCOP(=O)([O-])OC1CC[N+](C)(C)CC1 [Perifosine] + COCC[n+]1c2c(n(Cc3cnccn3)c1C)C(=O)c1ccccc1C2=O [YM155] (first compound 0.4 µM, partner dose 0.0004 µM) | 73.7 | 68.4 | 81.5 | 70 | 85.7 | 408 | 107 | 76.7 | 182 | 142 | 203 | 125 | 246 | 63.6 | 212 | 274 | 130 | 67 | 92.3 | – |
| O=C(/C=C/c1cccnc1)NCCCCC1CCN(C(=O)c2ccccc2)CC1 + Cc1cc(Nc2cc(N3CCN(C)CC3)nc(/C=C/c3ccccc3)n2)n[nH]1 [ENMD2076] (first compound 0.01 µM, partner dose 0.04 µM) | 123 | 343 | 204 | 391 | 188 | 7280 | 100 | 661 | 701 | 1270 | 554 | 294 | 175 | 4380 | 675 | 205 | 609 | 251 | 82.8 | – |
| O=C(/C=C/c1cccnc1)NCCCCC1CCN(C(=O)c2ccccc2)CC1 + Nc1cccc2c1CN(C1CCC(=O)NC1=O)C2=O [lenalidomide] (first compound 0.01 µM, partner dose 1 µM) | 106 | 91.1 | 147 | 319 | 87.4 | 5610 | 111 | 971 | 386 | 1010 | 689 | 445 | 344 | 2070 | 294 | 122 | 121 | 160 | 255 | – |
| CC[C@]1(O)C[C@H]2CN(CCc3c([nH]c4ccccc34)[C@@](C(=O)OC)(c3cc4c(cc3OC)N(C=O)[C@H]3[C@@](O)(C(=O)OC)[C@H](OC(C)=O)[C@]5(CC)C=CCN6CC[C@]43[C@@H]65)C2)C1 [vincristine] + CS(=O)(=O)c1ccc(C(=O)Nc2ccc(Cl)c(-c3ccccn3)c2)c(Cl)c1 [vismodegib] (first compound 0.0001 µM, partner dose 1 µM) | 84.6 | 139 | 541 | 252 | 97.4 | 41.7 | 126 | 137 | 153 | 36.6 | 176 | 112 | 110 | 148 | 29.6 | 65.7 | 63.4 | 140 | 50.7 | – |
| Cc1cn(-c2cc(NC(=O)c3ccc(C)c(Nc4nccc(-c5cccnc5)n4)c3)cc(C(F)(F)F)c2)cn1 [nilotinib] + C[C@@H](Oc1cc(-c2cnn(C3CCNCC3)c2)cnc1N)c1c(Cl)ccc(F)c1Cl [Crizotinib] (first compound 0.2 µM, partner dose 0.2 µM) | 81.9 | 81.9 | 109 | 28.3 | 63.4 | 30.2 | 114 | 61.9 | 74.2 | 93.8 | 118 | 70.6 | 85 | 65.9 | 75.1 | 133 | 102 | 59.7 | 117 | – |
| CC[C@]1(O)C[C@H]2CN(CCc3c([nH]c4ccccc34)[C@@](C(=O)OC)(c3cc4c(cc3OC)N(C=O)[C@H]3[C@@](O)(C(=O)OC)[C@H](OC(C)=O)[C@]5(CC)C=CCN6CC[C@]43[C@@H]65)C2)C1 [vincristine] + C[C@@H](N)c1ccc(C(=O)Nc2ccnc3[nH]ccc23)cc1 [RKI983] (first compound 0.0001 µM, partner dose 0.4 µM) | 169 | 259 | 4840 | 702 | 172 | 158 | 87.4 | 193 | 198 | 71.3 | 93.1 | 85.4 | 101 | 151 | 42.3 | 134 | 59.7 | 421 | 111 | – |
| CC[C@]1(O)C[C@H]2CN(CCc3c([nH]c4ccccc34)[C@@](C(=O)OC)(c3cc4c(cc3OC)N(C=O)[C@H]3[C@@](O)(C(=O)OC)[C@H](OC(C)=O)[C@]5(CC)C=CCN6CC[C@]43[C@@H]65)C2)C1 [vincristine] + CO[C@H]1C[C@@H]2CC[C@@H](C)[C@@](O)(O2)C(=O)C(=O)N2CCCC[C@H]2C(=O)O[C@H]([C@H](C)C[C@@H]2CC[C@@H](OCCO)[C@H](OC)C2)CC(=O)[C@H](C)/C=C(\C)[C@@H](O)[C@@H](OC)C(=O)[C@H](C)C[C@H](C)/C=C/C=C/C=C/1C [everolimus] (first compound 0.0001 µM, partner dose 0.02 µM) | 490 | 173 | 2150 | 888 | 119 | 508 | 89.5 | 92.5 | 107 | 113 | 91.8 | 84.1 | 120 | 122 | 162 | 181 | 66.6 | 168 | 79.4 | – |
| CCCCCCCCCCCCCCCCCCOP(=O)([O-])OC1CC[N+](C)(C)CC1 [Perifosine] + CC(=O)O[C@@]12CO[C@@H]1C[C@H](O)[C@@]1(C)C(=O)[C@H](O)C3=C(C)[C@@H](OC(=O)[C@H](O)[C@@H](NC(=O)OC(C)(C)C)c4ccccc4)C[C@@](O)([C@@H](OC(=O)c4ccccc4)[C@H]21)C3(C)C [Docetaxel] (first compound 0.4 µM, partner dose 0.0001 µM) | 143 | 132 | 1930 | 2530 | 157 | 393 | 129 | 151 | 104 | 65.5 | 631 | 239 | 369 | 321 | 119 | 82.8 | 146 | 56.6 | 78.9 | – |
